Laboratory results as given in US20170349433A1, “IMMUNONANOTHERAPEUTICS PROVIDING A TH1-BIASED RESPONSE” (Selecta Biosciences, Inc., priority 2009, published 2017).
At least one compound was matched to its structure with a doubt left.

What was measured:
Format in all cases: in vivo, Mice (BALB/c)
IL-4 = assay: BALF IL-4 by ELISA in ovalbumin-sensitized and challenged mice; settings: treatment i.p.; BALF 18 hours after final ovalbumin challenge; FIG. 2A
IL-5 = assay: BALF IL-5 by ELISA in ovalbumin-sensitized and challenged mice; settings: treatment i.p.; BALF 18 hours after final ovalbumin challenge; FIG. 2B
IL-13 = assay: BALF IL-13 by ELISA in ovalbumin-sensitized and challenged mice; settings: treatment i.p.; BALF 18 hours after final ovalbumin challenge; FIG. 2C

CCOCc1nc2c(N)nc3ccccc3c2n1CC(C)(C)O [Example R848, resiquimod]
reduced: BALF IL-4 level compared to mice presensitized and challenged with ovalbumin (IL-4) | BALF IL-5 level compared to mice presensitized and challenged with ovalbumin (IL-5) | BALF IL-13 level compared to mice presensitized and challenged with ovalbumin (IL-13)
